The results in this text go back to PMC3150338.

These are yes or no findings as the source states them, for the method shown. In cells and extracts the contact can be indirect. Some results given as binding are weak or reduced against the parent protein; the word gives no strength.

Assay [1] deals with Rpb1, the large subunit of RNA polymerase II (Pol II) (S. cerevisiae (endogenous in yeast whole cell extract)) (UniProt P04050). As to the kind of experiment: co-IP; reciprocal reaction: yeast whole cell extracts (strains SY1000 and SY1004 grown in 1.8% raffinose/0.2% galactose); Rpb1 precipitated with anti-Pol II (CTD) antiserum, p53 detected with DO-1.
Assay [2] concerns the target full-length p53 (p53+) expressed in yeast (human) (UniProt P04637). As to the kind of experiment: co-IP; yeast whole cell extracts (strains SY1000 and SY1004 grown in 1.8% raffinose/0.2% galactose); p53 precipitated with mAb DO-1, Rpb1 detected with anti-CTD antiserum.
The target of assay [3] is core domain-deleted p53 (p53coreΔ), lacking amino acids 91-294 (human) (UniProt P04637). The assay is described as above.

With “core domain-deleted p53 (p53coreΔ), lacking amino acids 91-294 (from UniProt P04637 1-393)”, the binding entry in assay [1] is given as “no binding”.

For “full-length p53 (p53+) expressed in yeast (from UniProt P04637 1-393)”, the binding entry in assay [1] is recorded as “binds”.

Take “Rpb1, the large subunit of RNA polymerase II (Pol II) (from UniProt P04050 1-1733)”: the binding entry in assay [2] is recorded as “binds”; in assay [3] it was “no binding”.
